Measurements reported in PubChem BioAssay AID1259262 (Sanger Institute, 2017)
Test: 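Kinase knock-downs that strengthen killing by targeted cancer drugs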 (follow-up of hits). Cell system: LS513 human colorectal cancer cells. Knock-down reagent: single siRNA against human genes. Challenge: anchor drug or DMSO vehicle: cetuximab 5 µg/ml, trametinib 10 nM or BYL719 1 µM; exposure length not given. Detection: 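Cell viability relative to non-targeting control siRNA, and a synergy score for each anchor drug, averaged over replicates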. Scale: synergy score with trametinib and synergy score with BYL719 and synergy score with cetuximab: higher = stronger synergistic loss of viability with drug; viability, siRNA with trametinib and viability, siRNA with vehicle only: higher = more viable cells. Rule for the call: 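Called active if at least one of the three drugs gives a synergy score over 0.10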. Calls: active = synergy with at least one drug; inactive = no synergy with any drug.
This is a random part of 160 reagents. 93 of all reagents (58%) count as active. 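Calls refer to single siRNAs; gene-level validation required two or more siRNAs in several lines; synergy score formula unstated.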 The numbers tell different reagents against one gene apart. Viability is capped at 1. Not given: the amount of reagent, the time to read-out.

gene symbol | siRNA no. | synergy score with trametinib | synergy score with BYL719 | synergy score with cetuximab | viability, siRNA with trametinib (fraction of control) | viability, siRNA with vehicle only (fraction of control) | Outcome
MPP3 | 1 | -0.0893 | -0.0283 | -0.0152 | 0.577 | 0.898 | inactive
MPP3 | 2 | -0.0078 | -0.12 | -0.111 | 0.511 | 0.926 | inactive
MPP3 | 3 | 0.355 | -0.068 | 0.0564 | 0.0604 | 0.764 | active
MPP3 | 4 | 0.221 | -0.0354 | 0.0102 | 0.32 | 0.996 | active
NR2F2 | 1 | 0.162 | -0.0816 | -0.0178 | 0.381 | 1 | active
NR2F2 | 2 | 0.129 | -0.0457 | -0.11 | 0.415 | 1 | active
NR2F2 | 3 | 0.122 | -0.226 | -0.11 | 0.422 | 1 | active
NR2F2 | 4 | 0.349 | 0.00271 | 0.0193 | 0.144 | 0.906 | active
PIM1 | 1 | 0.122 | -0.125 | -0.0232 | 0.25 | 0.685 | active
PIM1 | 2 | 0.238 | -0.134 | -0.017 | 0.221 | 0.843 | active
PIM1 | 3 | 0.029 | -0.141 | -0.127 | 0.455 | 0.89 | inactive
PIM1 | 4 | 0.0803 | -0.162 | -0.186 | 0.346 | 0.784 | inactive
ACVR1 | 1 | 0.0925 | -0.118 | -0.11 | 0.451 | 1 | inactive
ACVR1 | 2 | 0.183 | -0.226 | -0.0895 | 0.287 | 0.863 | active
ACVR1 | 3 | 0.307 | -0.226 | -0.11 | 0.236 | 1 | active
ACVR1 | 4 | 0.176 | -0.126 | -0.0295 | 0.329 | 0.929 | active
GTF2H1 | 1 | -0.0136 | -0.2 | -0.0321 | 0.449 | 0.801 | inactive
GTF2H1 | 2 | 0.101 | -0.18 | 0.0235 | 0.443 | 1 | active
GTF2H1 | 3 | -0.147 | -0.13 | -0.0549 | 0.669 | 0.959 | inactive
GTF2H1 | 4 | 0.13 | -0.0855 | -0.0384 | 0.0909 | 0.405 | active
